{
  "sequences": {"note": "The chains behind the UniProt entries cited, without tags or fusion partners.", "UniProt Q77Q36": "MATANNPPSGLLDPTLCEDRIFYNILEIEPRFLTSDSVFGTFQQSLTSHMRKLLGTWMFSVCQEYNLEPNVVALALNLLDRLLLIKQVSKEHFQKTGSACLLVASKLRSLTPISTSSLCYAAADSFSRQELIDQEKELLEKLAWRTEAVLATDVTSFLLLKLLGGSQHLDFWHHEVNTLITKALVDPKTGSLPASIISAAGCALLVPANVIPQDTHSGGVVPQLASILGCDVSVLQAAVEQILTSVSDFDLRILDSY", "UniProt O14744": "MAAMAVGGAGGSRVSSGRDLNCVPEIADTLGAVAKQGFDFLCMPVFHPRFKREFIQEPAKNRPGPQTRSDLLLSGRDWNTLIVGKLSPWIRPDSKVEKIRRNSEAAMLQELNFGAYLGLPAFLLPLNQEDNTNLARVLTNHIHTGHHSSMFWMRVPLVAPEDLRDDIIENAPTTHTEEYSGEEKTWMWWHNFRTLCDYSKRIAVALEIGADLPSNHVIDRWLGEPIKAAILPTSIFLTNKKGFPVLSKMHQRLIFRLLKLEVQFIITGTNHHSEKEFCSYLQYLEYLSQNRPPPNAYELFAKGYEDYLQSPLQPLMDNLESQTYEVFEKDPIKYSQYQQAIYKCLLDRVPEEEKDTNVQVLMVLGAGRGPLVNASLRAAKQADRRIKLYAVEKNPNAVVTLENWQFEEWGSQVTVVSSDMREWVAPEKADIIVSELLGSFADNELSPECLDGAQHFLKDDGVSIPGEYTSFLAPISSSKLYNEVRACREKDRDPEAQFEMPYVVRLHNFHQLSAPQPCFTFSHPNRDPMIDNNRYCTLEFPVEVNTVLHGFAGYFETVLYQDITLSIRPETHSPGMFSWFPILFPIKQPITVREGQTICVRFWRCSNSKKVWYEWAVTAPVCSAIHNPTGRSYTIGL"},
  "source": "paper PMC11421797",
  "molecular_target": "Flag-tagged KSHV vCyclin (Kaposi's sarcoma-associated herpesvirus (KSHV BAC16)) (UniProt Q77Q36)",
  "assay": "affinity purification with mass spectrometry; Flag-tagged vCyclin or empty vector overexpressed in HEK293T and HEK293T.219 cells for 48 h; lysate in IP lysis buffer on anti-FLAG M2 agarose beads 6-8 h at 4°C, washed 4 times with PBS; eluates analysed by MS",
  "note": "No constants are given. Whether binding was seen depends on the method and setting. Binding seen in cells or lysates may run through a third protein. These calls come from enrichment with a bait or labelling near it, and not all partners need be listed.",
  "data": [
    {"substance": "endogenous protein arginine methyltransferase 5 (from UniProt O14744 1-637) (enzyme)", "values": [
      {"measurement": "binding", "result": "binds"}
    ]}
  ]
}
